In the test the target is Human Parathyroid Calcium Receptor (HuPCaR) (human) (UniProt P41180). Put plainly: immunoblot with SDD antiserum; self-association. (In general: A western blot detects proteins with antibodies after separation by electrophoresis.)

Chains of the proteins cited; added tags and fusions are not shown. Lines headed by an entry give the natural chain unless they say otherwise; changes in a name come on top.
UniProt P41180: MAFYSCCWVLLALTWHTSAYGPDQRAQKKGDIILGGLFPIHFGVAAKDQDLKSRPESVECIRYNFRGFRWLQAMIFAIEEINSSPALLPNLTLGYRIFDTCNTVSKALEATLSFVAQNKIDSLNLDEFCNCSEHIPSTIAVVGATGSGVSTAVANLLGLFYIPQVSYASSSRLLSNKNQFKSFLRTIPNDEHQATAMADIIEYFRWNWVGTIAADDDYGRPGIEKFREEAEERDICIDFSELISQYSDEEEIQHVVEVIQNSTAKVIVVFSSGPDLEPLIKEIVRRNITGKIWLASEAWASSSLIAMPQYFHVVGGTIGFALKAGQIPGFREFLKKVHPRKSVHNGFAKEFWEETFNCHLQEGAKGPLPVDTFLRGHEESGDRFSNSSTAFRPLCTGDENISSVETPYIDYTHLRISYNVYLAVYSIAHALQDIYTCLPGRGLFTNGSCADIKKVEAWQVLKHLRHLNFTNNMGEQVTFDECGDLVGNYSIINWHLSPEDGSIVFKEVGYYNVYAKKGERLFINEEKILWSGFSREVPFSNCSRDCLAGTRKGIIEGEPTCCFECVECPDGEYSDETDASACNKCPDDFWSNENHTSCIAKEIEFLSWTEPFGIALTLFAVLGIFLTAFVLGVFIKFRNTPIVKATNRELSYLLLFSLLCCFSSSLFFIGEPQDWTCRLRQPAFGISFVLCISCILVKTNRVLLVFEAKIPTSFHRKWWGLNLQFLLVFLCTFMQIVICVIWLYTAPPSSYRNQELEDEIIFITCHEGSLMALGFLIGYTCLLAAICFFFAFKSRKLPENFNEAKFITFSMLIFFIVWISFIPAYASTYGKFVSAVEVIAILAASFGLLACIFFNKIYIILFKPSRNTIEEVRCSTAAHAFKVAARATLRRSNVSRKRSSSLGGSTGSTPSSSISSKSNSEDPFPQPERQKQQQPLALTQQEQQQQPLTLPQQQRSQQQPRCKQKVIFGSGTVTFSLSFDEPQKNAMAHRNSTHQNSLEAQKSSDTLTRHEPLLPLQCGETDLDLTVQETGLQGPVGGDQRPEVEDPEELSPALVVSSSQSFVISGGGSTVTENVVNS

Results are given in words; binding and its absence hold for the method and conditions named. Some binding calls cover weakened binding; strength is not graded here.

B1: Human Parathyroid Calcium Receptor (HuPCaR) (receptor)
chain: YSPSQPAQKKGDIILGGLFPIHFGVAAKDQDLKSRPESVECIRYNFRGFRWLQAMIFAIEEINSSPALLPNLTLGYRIFDTCNTVSKALEATLSFVAQNKIDSLNLDEFCNCSEHIPSTIAVVGATGSGVSTAVANLLGLFYIPQVSYASSSRLLSNKNQFKSFLRTIPNDEHCATAMADIIEYFRWNWVGTIAADDDYGRPGIEKFREEAEERDICIDFSELISQYSDEEEIQMVVEVIQNSTAKVIVVFSSGPDLEPLIKEIVPRNITGKIWLASEAWASSSLIAMPQYFHVVGGTIGFALKAGQIPGFREFLKKVHPPKSVNNGFAKEFWEETFMCHLQEGAKGPLPVDTFLAGHEESGDRFSNSSTAFPPLCTGDENISSVETPYIDYTNLRISYNVYLAVYSIANALQDIYTCLPGRGLFTNGSCADIKKVEAWQVLKHLRNLNFTNNMGEQVTFDECGDLVGNYSIINWHLSPEDGSIVFKEVGYYNVYAKKGERLFINEEKILWSGFSREVPFSNCSRDCLAGTRKGIIEGEPTCCFECVECPDGEYSDETDASACNKCPDDFWSNENHTSCIAKEIEFLSWTEPFGIALTLFAVLGISLTAFVLGVFIKFRNTPIVKATNRELSYLLLFSLLCCFSSSLFFIGEPQDWTCRLRQPAFGISFVLCISCILVKTNRVLLVFEAKIPTSFMFKWWGLNLQFLLVFLCTFNQIVICVIWLYTAPPSSYRNQELEDEIIFITCNEGSLMALGFLIGYTCLLAAICFFFAFKSRKLPENFNEAKFITFSMLIFFIVWISFIPAYASTYGKFVSAVEVIAILAASFGLLACIFFNKIYIILFKPSRNTIEEVRCSTAANAFKVAARATLRRSNVSRKRSSSLGGSTGSTPSSSISSKSNSEDPFPRPERQKQQQPLALTQQEQQQQPLTLPQQQRSQQQPRCKQKVIFGSGTVTFSLSFDEPQKNAMANRNSTNQNSLEAQKSSDTLTANQPLLPLQCGETDLDLTVQETGLQGPVGGDQRPEVEDPEELSPALVVSSSQSFVISGGGSTVTENVVNS
Regarding B1, the binding result is reported as “binds”.

The values are drawn from US7101988B2, “Polyvalent cation-sensing receptor in Atlantic salmon” (MariCal, Inc., priority 2000, dated 2006).
